Assay results as given in the supplement of paper PMC10849652.
The other results are listed elsewhere or left out.

Protein sequences, listed by entry. Tags and fused reporters are not part of them. Lines headed by an entry give the natural chain unless they say otherwise; changes in a name come on top.
UniProt P48723: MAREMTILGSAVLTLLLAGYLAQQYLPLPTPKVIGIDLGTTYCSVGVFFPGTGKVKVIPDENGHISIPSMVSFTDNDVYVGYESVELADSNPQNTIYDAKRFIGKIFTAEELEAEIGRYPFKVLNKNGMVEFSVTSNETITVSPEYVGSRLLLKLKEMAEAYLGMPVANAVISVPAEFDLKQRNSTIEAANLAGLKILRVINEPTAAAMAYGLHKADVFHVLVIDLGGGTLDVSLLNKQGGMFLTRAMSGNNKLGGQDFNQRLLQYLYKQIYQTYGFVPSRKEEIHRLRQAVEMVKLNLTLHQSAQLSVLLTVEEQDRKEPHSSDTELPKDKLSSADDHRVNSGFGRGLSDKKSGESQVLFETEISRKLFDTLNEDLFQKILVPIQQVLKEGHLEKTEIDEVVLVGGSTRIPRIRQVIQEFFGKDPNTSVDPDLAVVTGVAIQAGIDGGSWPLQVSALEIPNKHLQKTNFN
UniProt O43390: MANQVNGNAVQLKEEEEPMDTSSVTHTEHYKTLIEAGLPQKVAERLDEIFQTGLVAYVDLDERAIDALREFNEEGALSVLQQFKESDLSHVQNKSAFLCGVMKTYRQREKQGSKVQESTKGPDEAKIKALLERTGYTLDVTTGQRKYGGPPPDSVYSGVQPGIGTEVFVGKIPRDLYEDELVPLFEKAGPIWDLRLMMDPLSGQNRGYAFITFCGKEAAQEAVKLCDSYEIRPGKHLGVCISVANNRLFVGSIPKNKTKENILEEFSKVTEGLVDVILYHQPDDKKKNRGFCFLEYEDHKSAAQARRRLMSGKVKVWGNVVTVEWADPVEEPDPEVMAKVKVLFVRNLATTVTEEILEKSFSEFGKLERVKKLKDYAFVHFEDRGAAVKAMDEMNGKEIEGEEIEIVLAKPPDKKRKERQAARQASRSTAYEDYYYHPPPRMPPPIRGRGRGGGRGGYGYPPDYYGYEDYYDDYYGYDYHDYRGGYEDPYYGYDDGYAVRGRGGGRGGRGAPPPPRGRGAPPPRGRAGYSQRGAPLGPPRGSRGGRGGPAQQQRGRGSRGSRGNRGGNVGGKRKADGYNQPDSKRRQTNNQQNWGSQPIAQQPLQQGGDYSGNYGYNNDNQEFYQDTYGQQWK
UniProt P31937: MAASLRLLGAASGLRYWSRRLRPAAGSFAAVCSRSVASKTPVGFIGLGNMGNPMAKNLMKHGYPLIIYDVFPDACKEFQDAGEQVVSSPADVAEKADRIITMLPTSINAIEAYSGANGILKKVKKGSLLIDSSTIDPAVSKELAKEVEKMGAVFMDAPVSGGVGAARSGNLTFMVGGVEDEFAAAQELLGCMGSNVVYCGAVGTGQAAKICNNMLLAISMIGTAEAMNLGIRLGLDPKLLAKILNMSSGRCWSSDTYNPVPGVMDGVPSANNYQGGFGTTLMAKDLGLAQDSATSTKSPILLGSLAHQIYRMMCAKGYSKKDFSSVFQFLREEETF
UniProt Q01581: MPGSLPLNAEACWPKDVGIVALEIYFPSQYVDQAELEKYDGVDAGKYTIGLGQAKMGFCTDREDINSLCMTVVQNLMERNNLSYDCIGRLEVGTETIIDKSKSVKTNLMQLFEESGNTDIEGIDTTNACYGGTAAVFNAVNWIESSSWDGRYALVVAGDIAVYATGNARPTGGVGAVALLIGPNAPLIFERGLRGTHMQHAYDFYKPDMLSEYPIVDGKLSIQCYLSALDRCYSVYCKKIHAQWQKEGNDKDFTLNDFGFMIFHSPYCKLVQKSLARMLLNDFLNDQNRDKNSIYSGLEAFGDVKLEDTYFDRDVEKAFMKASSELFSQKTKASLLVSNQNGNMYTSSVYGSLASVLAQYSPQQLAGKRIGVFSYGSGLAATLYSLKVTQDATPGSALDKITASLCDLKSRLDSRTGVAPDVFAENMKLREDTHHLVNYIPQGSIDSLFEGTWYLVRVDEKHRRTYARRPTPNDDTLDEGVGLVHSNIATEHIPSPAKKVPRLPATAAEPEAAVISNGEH
UniProt P34931, whole entry, looked up: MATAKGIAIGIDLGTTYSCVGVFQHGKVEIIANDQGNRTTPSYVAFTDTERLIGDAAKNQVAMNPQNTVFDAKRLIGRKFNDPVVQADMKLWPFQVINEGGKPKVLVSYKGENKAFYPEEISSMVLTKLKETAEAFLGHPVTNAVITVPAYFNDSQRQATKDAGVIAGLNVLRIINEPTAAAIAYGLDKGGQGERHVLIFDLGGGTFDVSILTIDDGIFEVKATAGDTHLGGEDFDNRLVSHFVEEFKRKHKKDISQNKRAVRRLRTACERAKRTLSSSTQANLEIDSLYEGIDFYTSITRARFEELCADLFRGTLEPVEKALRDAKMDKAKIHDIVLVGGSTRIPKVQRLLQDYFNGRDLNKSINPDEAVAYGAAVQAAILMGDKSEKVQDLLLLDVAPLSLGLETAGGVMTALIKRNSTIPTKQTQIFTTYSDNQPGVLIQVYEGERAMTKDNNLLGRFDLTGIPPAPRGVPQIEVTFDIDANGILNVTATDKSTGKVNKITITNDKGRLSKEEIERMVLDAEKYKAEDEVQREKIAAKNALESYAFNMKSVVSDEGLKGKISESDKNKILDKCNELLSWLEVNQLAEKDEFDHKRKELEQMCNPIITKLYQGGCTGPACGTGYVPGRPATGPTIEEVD
UniProt P38646: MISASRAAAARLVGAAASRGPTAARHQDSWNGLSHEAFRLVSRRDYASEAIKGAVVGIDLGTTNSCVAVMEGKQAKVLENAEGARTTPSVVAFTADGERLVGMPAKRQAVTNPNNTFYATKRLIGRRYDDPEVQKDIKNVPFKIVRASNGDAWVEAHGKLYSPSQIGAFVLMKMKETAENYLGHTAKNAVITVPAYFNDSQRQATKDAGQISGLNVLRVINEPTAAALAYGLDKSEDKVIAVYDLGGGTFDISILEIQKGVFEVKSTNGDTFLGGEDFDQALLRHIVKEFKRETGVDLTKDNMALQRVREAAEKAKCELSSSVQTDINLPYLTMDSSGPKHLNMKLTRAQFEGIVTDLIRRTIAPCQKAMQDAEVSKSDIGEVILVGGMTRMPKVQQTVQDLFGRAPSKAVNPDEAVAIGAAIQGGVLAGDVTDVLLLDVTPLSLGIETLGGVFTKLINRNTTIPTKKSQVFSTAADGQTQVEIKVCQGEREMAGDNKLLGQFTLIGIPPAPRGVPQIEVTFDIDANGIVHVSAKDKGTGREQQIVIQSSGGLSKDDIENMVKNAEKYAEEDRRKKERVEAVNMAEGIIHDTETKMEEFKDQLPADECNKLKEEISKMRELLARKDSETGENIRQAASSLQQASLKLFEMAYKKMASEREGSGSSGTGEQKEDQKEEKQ
UniProt O43464: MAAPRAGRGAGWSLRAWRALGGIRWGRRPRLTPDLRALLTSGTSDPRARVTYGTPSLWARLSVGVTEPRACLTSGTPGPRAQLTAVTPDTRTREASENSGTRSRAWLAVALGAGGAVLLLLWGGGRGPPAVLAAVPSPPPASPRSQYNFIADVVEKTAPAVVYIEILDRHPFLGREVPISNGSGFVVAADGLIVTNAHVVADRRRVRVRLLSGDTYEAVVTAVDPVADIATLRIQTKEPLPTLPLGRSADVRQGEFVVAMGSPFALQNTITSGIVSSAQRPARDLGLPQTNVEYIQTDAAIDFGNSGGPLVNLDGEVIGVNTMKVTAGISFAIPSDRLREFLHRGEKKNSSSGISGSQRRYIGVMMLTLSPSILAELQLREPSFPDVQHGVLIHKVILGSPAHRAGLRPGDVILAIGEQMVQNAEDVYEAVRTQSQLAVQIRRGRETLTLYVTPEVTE
UniProt P17096: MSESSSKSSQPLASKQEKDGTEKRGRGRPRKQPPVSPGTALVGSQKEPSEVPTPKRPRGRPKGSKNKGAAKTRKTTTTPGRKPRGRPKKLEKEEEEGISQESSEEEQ
UniProt P31942: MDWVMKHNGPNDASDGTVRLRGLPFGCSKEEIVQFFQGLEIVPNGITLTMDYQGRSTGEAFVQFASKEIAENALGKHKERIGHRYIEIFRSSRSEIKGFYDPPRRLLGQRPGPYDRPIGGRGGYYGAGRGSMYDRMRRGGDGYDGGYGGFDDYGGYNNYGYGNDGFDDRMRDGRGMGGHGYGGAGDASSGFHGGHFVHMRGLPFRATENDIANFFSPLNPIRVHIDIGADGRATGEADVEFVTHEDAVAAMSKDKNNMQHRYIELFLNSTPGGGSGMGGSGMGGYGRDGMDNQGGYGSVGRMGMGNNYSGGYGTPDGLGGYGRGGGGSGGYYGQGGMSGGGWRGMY
UniProt P51991: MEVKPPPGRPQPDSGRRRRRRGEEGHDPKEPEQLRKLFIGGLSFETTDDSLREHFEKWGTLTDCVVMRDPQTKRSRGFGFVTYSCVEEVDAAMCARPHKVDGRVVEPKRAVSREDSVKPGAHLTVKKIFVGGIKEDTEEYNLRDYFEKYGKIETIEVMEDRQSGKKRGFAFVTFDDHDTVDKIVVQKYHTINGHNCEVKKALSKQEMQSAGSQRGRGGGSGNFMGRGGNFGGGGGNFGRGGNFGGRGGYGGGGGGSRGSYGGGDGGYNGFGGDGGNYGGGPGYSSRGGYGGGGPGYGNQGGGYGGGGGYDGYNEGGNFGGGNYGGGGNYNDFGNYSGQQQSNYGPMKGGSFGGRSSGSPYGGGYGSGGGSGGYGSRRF
UniProt O15347: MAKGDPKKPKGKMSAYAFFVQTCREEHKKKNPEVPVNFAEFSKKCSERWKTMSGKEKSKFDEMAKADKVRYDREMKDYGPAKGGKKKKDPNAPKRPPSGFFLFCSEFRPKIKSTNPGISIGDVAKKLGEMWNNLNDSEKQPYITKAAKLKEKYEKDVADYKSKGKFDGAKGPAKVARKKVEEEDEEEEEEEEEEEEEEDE
UniProt Q9BTY7: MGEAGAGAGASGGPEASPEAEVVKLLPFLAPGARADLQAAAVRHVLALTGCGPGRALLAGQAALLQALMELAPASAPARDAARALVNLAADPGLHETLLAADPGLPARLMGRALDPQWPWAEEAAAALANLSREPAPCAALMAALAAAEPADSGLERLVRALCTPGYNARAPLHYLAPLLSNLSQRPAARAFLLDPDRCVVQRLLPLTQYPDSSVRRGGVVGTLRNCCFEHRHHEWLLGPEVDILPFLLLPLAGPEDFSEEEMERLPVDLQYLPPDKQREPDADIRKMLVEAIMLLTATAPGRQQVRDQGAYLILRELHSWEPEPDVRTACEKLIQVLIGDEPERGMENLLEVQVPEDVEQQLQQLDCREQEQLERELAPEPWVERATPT
UniProt Q9BW71: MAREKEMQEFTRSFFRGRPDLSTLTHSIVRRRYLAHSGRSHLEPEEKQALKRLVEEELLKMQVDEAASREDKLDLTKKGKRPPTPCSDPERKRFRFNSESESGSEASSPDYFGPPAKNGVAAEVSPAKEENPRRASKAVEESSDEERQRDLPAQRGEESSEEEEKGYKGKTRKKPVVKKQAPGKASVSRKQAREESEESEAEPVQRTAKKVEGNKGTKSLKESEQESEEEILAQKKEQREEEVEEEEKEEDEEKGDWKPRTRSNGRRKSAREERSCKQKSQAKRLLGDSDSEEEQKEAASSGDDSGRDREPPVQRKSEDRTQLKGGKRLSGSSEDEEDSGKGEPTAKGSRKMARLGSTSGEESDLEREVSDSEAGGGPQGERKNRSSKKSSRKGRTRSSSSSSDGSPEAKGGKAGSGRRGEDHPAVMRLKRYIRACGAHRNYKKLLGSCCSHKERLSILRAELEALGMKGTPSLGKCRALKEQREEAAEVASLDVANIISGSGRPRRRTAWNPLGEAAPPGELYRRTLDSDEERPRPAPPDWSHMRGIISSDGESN
UniProt O14979: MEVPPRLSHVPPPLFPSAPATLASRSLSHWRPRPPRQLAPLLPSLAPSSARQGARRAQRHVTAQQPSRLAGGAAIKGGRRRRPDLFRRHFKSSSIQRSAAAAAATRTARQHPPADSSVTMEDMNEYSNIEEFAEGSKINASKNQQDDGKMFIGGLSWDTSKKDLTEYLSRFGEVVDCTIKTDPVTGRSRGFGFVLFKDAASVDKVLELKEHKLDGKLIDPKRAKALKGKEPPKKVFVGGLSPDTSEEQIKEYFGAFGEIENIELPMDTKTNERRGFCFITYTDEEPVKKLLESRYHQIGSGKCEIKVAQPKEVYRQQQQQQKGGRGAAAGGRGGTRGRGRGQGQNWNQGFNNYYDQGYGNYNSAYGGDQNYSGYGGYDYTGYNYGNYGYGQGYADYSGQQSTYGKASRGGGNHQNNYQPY
UniProt Q9NZL4: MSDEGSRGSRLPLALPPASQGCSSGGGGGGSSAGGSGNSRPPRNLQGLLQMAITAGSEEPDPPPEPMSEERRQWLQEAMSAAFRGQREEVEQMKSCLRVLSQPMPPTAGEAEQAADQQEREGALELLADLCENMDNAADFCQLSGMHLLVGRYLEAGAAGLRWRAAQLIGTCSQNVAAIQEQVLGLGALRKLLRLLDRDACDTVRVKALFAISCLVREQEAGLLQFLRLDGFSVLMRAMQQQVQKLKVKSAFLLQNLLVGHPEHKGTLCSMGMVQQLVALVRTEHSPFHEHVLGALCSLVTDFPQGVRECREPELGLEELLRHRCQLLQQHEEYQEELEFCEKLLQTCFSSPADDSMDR

What follows are targets tested with Cc1cn(-c2cc(NC(=O)c3ccc(C)c(Nc4nccc(-c5cccnc5)n4)c3)cc(C(F)(F)F)c2)cn1 [nilotinib] (assay: log2 fold change, soluble protein after heating vs DMSO (PISA); higher = thermal stabilisation; K562 cells, 10 uM, 30 min; active = over 0.2 and 3.5 SD of the protein, either way, in both replicates (recomputed)).
Outline: (§1)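 K562 cells at 2×10^6 cells/mL were treated with 10 μM compound for 30 min. Aliquots were heated for 3 min across 48°C-58°C, pooled, and extracted in PBS with 0.5% NP-40 at 4°C; soluble protein was the supernatant after 21,000xg for 90 min. Soluble protein was quantified by TMTpro 16plex LC-MS/MS with channel sums equalised, and reported as log2 fold change in thermal stability against DMSO controls, with values from duplicates.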
For HNRNPK isoform 2 (UniProt P61978), the log2 fold change was inactive: -0.084.
For HNRNPU (UniProt Q00839), the log2 fold change was inactive: -0.104.
In the case of HSPA13 (UniProt P48723), the log2 fold change is reported as inactive: -0.017.
For HNRNPR isoform 2 (UniProt O43390), the log2 fold change was inactive: -0.079.
In the case of HIST2H3A (UniProt Q71DI3), the log2 fold change is reported as inactive: -0.054.
HIBCH (UniProt Q6NVY1) was tested, and the log2 fold change was inactive: -0.003.
With HNRNPA1 (UniProt P09651) the log2 fold change was inactive: -0.053.
With HMOX2 (UniProt P30519) the log2 fold change was inactive: 0.002.
HOOK3 (UniProt Q86VS8) was tested, and the log2 fold change was inactive: -0.088.
With HIBADH (UniProt P31937) the log2 fold change was inactive: 0.032.
HMGN4 (UniProt O00479) was tested, and the log2 fold change was inactive: 0.249.
HIC2 (UniProt Q96JB3) was tested, and the log2 fold change was inactive: 0.075.
In the case of HMGCS1 (UniProt Q01581), the log2 fold change is reported as inactive: -0.018.
For HLTF (UniProt Q14527), the log2 fold change was inactive: 0.099.
For HSPA1L (UniProt P34931), the log2 fold change was inactive: 0.1.
In the case of HSPA5 (UniProt P11021), the log2 fold change is reported as inactive: 0.028.
HSPA9 (UniProt P38646) was tested, and the log2 fold change was inactive: -0.011.
With HTRA2 (UniProt O43464) the log2 fold change was inactive: -0.027.
In the case of HMGA1 (UniProt P17096), the log2 fold change is reported as inactive: -0.01.
With HSPB1 (UniProt P04792) the log2 fold change was inactive: 0.092.
HINT2 (UniProt Q9BX68) was tested, and the log2 fold change was inactive: 0.086.
In the case of HNRNPH3 (UniProt P31942), the log2 fold change is reported as inactive: 0.024.
HNRNPD (UniProt Q14103) was tested, and the log2 fold change was inactive: -0.013.
For HNRNPA3 (UniProt P51991), the log2 fold change was inactive: -0.004.
In the case of HMGB3 (UniProt O15347), the log2 fold change is reported as inactive: 0.051.
With HTATSF1 (UniProt O43719) the log2 fold change was inactive: -0.109.
In the case of HGH1 (UniProt Q9BTY7), the log2 fold change is reported as inactive: -0.013.
HIRIP3 (UniProt Q9BW71) was tested, and the log2 fold change was inactive: 0.009.
HYPK (UniProt Q9NX55) was tested, and the log2 fold change was inactive: 0.028.
With HNRNPDL (UniProt O14979) the log2 fold change was inactive: -0.009.
For HSPBP1 isoform 3 (UniProt Q9NZL4), the log2 fold change was inactive: -0.083.
With HKDC1 (UniProt Q2TB90) the log2 fold change was inactive: -0.171.
HNRNPUL1 (UniProt Q9BUJ2) was tested, and the log2 fold change was inactive: -0.032.

What follows are targets tested with Cc1nc(Nc2n[nH]c3c2CN(C(=O)N[C@H](CN(C)C)c2ccccc2)C3(C)C)c2sccc2n1 in the same assay as above.
Outline: as §1
For HNRNPK isoform 2 (UniProt P61978), the log2 fold change was inactive: -0.206.
In the case of HNRNPU (UniProt Q00839), the log2 fold change is reported as inactive: -0.077.
HSPA13 (UniProt P48723) was tested, and the log2 fold change was inactive: 0.013.
For HNRNPR isoform 2 (UniProt O43390), the log2 fold change was inactive: 0.
In the case of HIST2H3A (UniProt Q71DI3), the log2 fold change is reported as inactive: -0.068.
HIBCH (UniProt Q6NVY1) was tested, and the log2 fold change was inactive: 0.021.
For HNRNPA1 (UniProt P09651), the log2 fold change was inactive: 0.106.
With HMOX2 (UniProt P30519) the log2 fold change was inactive: -0.08.
For HOOK3 (UniProt Q86VS8), the log2 fold change was inactive: -0.078.
For HIBADH (UniProt P31937), the log2 fold change was inactive: 0.037.
HMGN4 (UniProt O00479) was tested, and the log2 fold change was inactive: -0.131.
HIC2 (UniProt Q96JB3) was tested, and the log2 fold change was active: -0.446.
With HMGCS1 (UniProt Q01581) the log2 fold change was inactive: -0.06.
With HLTF (UniProt Q14527) the log2 fold change was inactive: -0.193.
HSPA1L (UniProt P34931) was tested, and the log2 fold change was inactive: 0.078.
For HSPA5 (UniProt P11021), the log2 fold change was inactive: 0.014.
With HSPA9 (UniProt P38646) the log2 fold change was inactive: -0.008.
With HTRA2 (UniProt O43464) the log2 fold change was inactive: -0.008.
HMGA1 (UniProt P17096) was tested, and the log2 fold change was inactive: 0.035.
For HSPB1 (UniProt P04792), the log2 fold change was inactive: -0.115.
HINT2 (UniProt Q9BX68) was tested, and the log2 fold change was inactive: 0.012.
In the case of HNRNPH3 (UniProt P31942), the log2 fold change is reported as inactive: -0.149.
For HNRNPD (UniProt Q14103), the log2 fold change was inactive: 0.145.
HNRNPA3 (UniProt P51991) was tested, and the log2 fold change was inactive: 0.064.
For HMGB3 (UniProt O15347), the log2 fold change was inactive: -0.013.
With HTATSF1 (UniProt O43719) the log2 fold change was inactive: -0.203.
With HGH1 (UniProt Q9BTY7) the log2 fold change was inactive: -0.064.
In the case of HIRIP3 (UniProt Q9BW71), the log2 fold change is reported as inactive: -0.065.
With HYPK (UniProt Q9NX55) the log2 fold change was inactive: 0.017.
In the case of HNRNPDL (UniProt O14979), the log2 fold change is reported as inactive: 0.141.
HSPBP1 isoform 3 (UniProt Q9NZL4) was tested, and the log2 fold change was inactive: -0.025.
In the case of HKDC1 (UniProt Q2TB90), the log2 fold change is reported as inactive: -0.056.
In the case of HNRNPUL1 (UniProt Q9BUJ2), the log2 fold change is reported as inactive: -0.008.

The targets below were run with Cc1nc(Nc2ncc(C(=O)Nc3c(C)cccc3Cl)s2)cc(N2CCN(CCO)CC2)n1 [dasatinib] in the same assay as above.
Outline: as §1
HNRNPK isoform 2 (UniProt P61978) was tested, and the log2 fold change was inactive: -0.072.
In the case of HNRNPU (UniProt Q00839), the log2 fold change is reported as inactive: 0.009.
In the case of HSPA13 (UniProt P48723), the log2 fold change is reported as inactive: -0.025.
HNRNPR isoform 2 (UniProt O43390) was tested, and the log2 fold change was inactive: 0.161.
HIST2H3A (UniProt Q71DI3) was tested, and the log2 fold change was inactive: 0.215.
For HIBCH (UniProt Q6NVY1), the log2 fold change was inactive: -0.092.
For HNRNPA1 (UniProt P09651), the log2 fold change was inactive: 0.233.
In the case of HMOX2 (UniProt P30519), the log2 fold change is reported as inactive: -0.141.
HOOK3 (UniProt Q86VS8) was tested, and the log2 fold change was inactive: -0.07.
For HIBADH (UniProt P31937), the log2 fold change was inactive: 0.034.
In the case of HMGN4 (UniProt O00479), the log2 fold change is reported as inactive: 0.007.
For HIC2 (UniProt Q96JB3), the log2 fold change was inactive: 0.071.
HMGCS1 (UniProt Q01581) was tested, and the log2 fold change was inactive: 0.032.
With HLTF (UniProt Q14527) the log2 fold change was inactive: -0.035.
In the case of HSPA1L (UniProt P34931), the log2 fold change is reported as inactive: 0.034.
HSPA5 (UniProt P11021) was tested, and the log2 fold change was inactive: 0.024.
With HSPA9 (UniProt P38646) the log2 fold change was inactive: 0.016.
With HTRA2 (UniProt O43464) the log2 fold change was inactive: -0.013.
In the case of HMGA1 (UniProt P17096), the log2 fold change is reported as inactive: 0.165.
In the case of HSPB1 (UniProt P04792), the log2 fold change is reported as inactive: -0.043.
With HINT2 (UniProt Q9BX68) the log2 fold change was inactive: 0.086.
In the case of HNRNPH3 (UniProt P31942), the log2 fold change is reported as inactive: -0.016.
In the case of HNRNPD (UniProt Q14103), the log2 fold change is reported as inactive: 0.17.
In the case of HNRNPA3 (UniProt P51991), the log2 fold change is reported as inactive: 0.199.
With HMGB3 (UniProt O15347) the log2 fold change was inactive: 0.066.
With HTATSF1 (UniProt O43719) the log2 fold change was inactive: -0.078.
For HGH1 (UniProt Q9BTY7), the log2 fold change was inactive: -0.042.
With HIRIP3 (UniProt Q9BW71) the log2 fold change was inactive: -0.037.
With HYPK (UniProt Q9NX55) the log2 fold change was inactive: 0.004.
HNRNPDL (UniProt O14979) was tested, and the log2 fold change was inactive: 0.215.
HSPBP1 isoform 3 (UniProt Q9NZL4) was tested, and the log2 fold change was inactive: -0.085.
HKDC1 (UniProt Q2TB90) was tested, and the log2 fold change was inactive: -0.036.
With HNRNPUL1 (UniProt Q9BUJ2) the log2 fold change was inactive: -0.061.
